Data from PubChem BioAssay AID1508600 (Functional Genomics Laboratory (NCATS/FGL), 2020).
Out of some 53,000 sequences screened, about 3,700 (7%) were called active.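 The calls were made as follows: active = gene knockdowns whose robust z-score for IL-1 alpha signal is at least 2 or at most -2, so actives lie on both sides; inactive = the rest.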 The list shows a part of the results.

Assay: Components of the Cytosolic LPS Sensing Pathway: Gene Identification via Genome-wide siRNA Screen;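 also: robust z of the log signal after scaling to non-targeting control siRNA wells of the plate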
Settings: RAW264.7 macrophages, IL-1a HTRF, actives lie on both sides, screened at 100 nM (by protocol), cells primed 5 h with Pam3CSK4 first
Outline: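 Read-out: IL-1a HTRF on supernatant, divided by plate negative-control median ×100, log-transformed and converted to robust z-score. Cells were RAW264.7 given 100 nM siRNA, Pam3CSK4-primed 5 hours, then LipidA-transfected 24 hour.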
For CCUGCCUUUUCCUAAUGAATT against Ovca2, the z-score was inactive: 0.48.
With GGACCCAAAUCUUUUUAGATT against Wac the z-score was inactive: -1.03.
In the case of GGCCAUAGUGCAGUUAGGUTT against Cd24a, the z-score is reported as inactive: -0.054.
For GCUCCAGGGCAUUGUUUCUTT against Gm5409, the z-score was inactive: 0.64.
For GUAACUCCUCCAUGAACUCTT against a, the z-score was inactive: 0.249.
For CCAGGUUCUCCGAAUCUCUTT against Cpa1, the z-score was inactive: -0.854.
In the case of GGCAGGAACUUUAUAAGGATT against Xlr4b, the z-score is reported as inactive: 0.398.
In the case of GUUCUGAAGGGCGACGUAATT against Olfr1217, the z-score is reported as inactive: 0.52.
With GGUGGAUCAUACAAAUUUGTT against Pank2 the z-score was inactive: 0.584.
For GGGUAUUAAUGCCUCUGCATT against Gpr183, the z-score was inactive: -1.29.
With CCAGAAAGAGAGCUCUAGGTT against Diaph1 the z-score was inactive: 1.57.
In the case of GGCUCAUUUUGAAGCUAAGTT against Bud13, the z-score is reported as inactive: 0.899.
For GGCAGGUAAUAAAGUUUGUTT against Kcne1l, the z-score was inactive: 1.45.
With CCUUACUCAAGAUCCUGCUTT against Olfr1243 the z-score was inactive: -0.23.
In the case of GGACGACUACAGCUAUGACTT against Klk1b1, the z-score is reported as inactive: 0.11.
With CCAUGUUCAAGUCAAAACUTT against Poglut1 the z-score was inactive: -0.167.
With GGCCCAGAUUUCUUAUAUATT against Tnfrsf19 the z-score was inactive: 0.618.
In the case of GGGACAGGUUGUUCAGUUCTT against Dbt, the z-score is reported as inactive: -0.448.
For GGAGCUGGACAAGUUUAAGTT against Tjap1, the z-score was inactive: -0.302.
In the case of GACUCCCAGCUGGCUAUGATT against Ifna9, the z-score is reported as inactive: 0.583.
For CCAAUAGAGAAACUUUCUCTT against Micu2, the z-score was inactive: -0.147.
For GGAAAAGCUUCUAAAGGAGTT against Tnfaip3, the z-score was inactive: 0.884.
With GGUGAAAGACCACAAAUUCTT against Prkca the z-score was inactive: -0.824.
In the case of CCAAUGUGCGAGCAAAGAUTT against Arid5a, the z-score is reported as active: 2.48.
For GGCUUCACUAUACGAGAGATT against Mical1, the z-score was inactive: -0.167.
With GGAGAAUCCGAGGAUAACUTT against Ereg the z-score was inactive: 0.774.
With GGCCGACAUAAAGAAAUCATT against Nol7 the z-score was inactive: -0.744.
In the case of GGUCUCAAUGCCCAUCAUATT against Sqle, the z-score is reported as inactive: 0.141.
For GGCUUCACAAGCCAAAAGUTT against Gabrg2, the z-score was inactive: -0.515.
In the case of GGCCACAAACAACCUAACATT against Nme6, the z-score is reported as inactive: -1.43.
In the case of CCACCUAAUUUCCUAGAUCTT against Rtp1, the z-score is reported as inactive: 0.255.
With GGCUGUCACCCUACAUGACTT against Uba1 the z-score was inactive: 0.0469.
With GGUCAUCUUCCUUUUUGCUTT against Olfr1501 the z-score was inactive: -1.
For GGCAUUUCUUCUUCUUCACTT against Ms4a3, the z-score was inactive: -1.67.
In the case of GCCGUACAACAAUGAAUAUTT against Pcdh20, the z-score is reported as inactive: -0.0167.
In the case of GCUACAGUUCAGGGACUUGTT against Leng9, the z-score is reported as inactive: 0.829.
In the case of CCAGCGAUCUUCCCAUUCUTT against Ccr8, the z-score is reported as inactive: -0.844.
With GGACCGCUUCAAAACUGGUTT against Hcrtr2 the z-score was inactive: 0.276.
For GGAACUCUUUUCCUAAAAUTT against Slco1a5, the z-score was inactive: -0.838.
For CCACAUUUUGGCCUAUCAGTT against Mtx2, the z-score was inactive: -1.3.
For GGCAUGUUCAUGUUCACUATT against Lrrc26, the z-score was inactive: -1.63.
For GGUAGAGGCAAGAAAUUCATT against Slc5a5, the z-score was inactive: 0.811.
In the case of GGCUAGAGUUCACGUUGGATT against Mrps26, the z-score is reported as inactive: -0.487.
With CCUGCUAAUUUCAAGUGUATT against Abcg3 the z-score was inactive: 0.475.
In the case of GGGUAAAGAGCUUCUUCCATT against Ahrr, the z-score is reported as inactive: -0.0768.
For GGAACAGGUAGUUUGGGAATT against Slco6b1, the z-score was inactive: 1.26.
For GGAACAACAUGUUCAAGAUTT against Ocrl, the z-score was inactive: -0.108.
For GGACGAUUCUUUUCUCCAGTT against Surf1, the z-score was active: -2.07.
With GCAUACCUCCGUAUUGUGATT against Snx30 the z-score was inactive: -0.868.
For GGCAUAACGAUGGGAAACATT against Insig2, the z-score was inactive: 0.62.
In the case of GGGACAUUAAGUGAUUUGUTT against Fbxo30, the z-score is reported as inactive: -0.271.
For GCUGGACUCACAUUUCAGUTT against Fam228a, the z-score was inactive: -1.28.
In the case of GGAACAAUGCCAGAAGUGUTT against Cul7, the z-score is reported as inactive: -1.87.
With CCAUGUUACGGAUUAUCUATT against Wdr24 the z-score was inactive: 3.9e-05.
In the case of GUGGCUUCAGAUCUCUGAATT against Krtap13, the z-score is reported as inactive: -0.394.
For “GGUUGCUUUUCUCUUUGAATT against 4921536K21Rik”, the z-score was inactive: -0.996.
For GCAACAUAUGUUCAAGAUCTT against Ccdc163, the z-score was inactive: 0.53.
In the case of GGCCUUGAUCCAAAAGUGGTT against Cyp21a1, the z-score is reported as inactive: -0.418.
For GGCGGAGUUAAAUUUUCUGTT against Pcdhgb6, the z-score was inactive: 0.613.
In the case of CCUGACCAAGCUUGCUUGGTT against Taz, the z-score is reported as inactive: -0.63.
For GGCGUGGCAACAUGGACAATT against Tmem98, the z-score was inactive: 1.76.
For GCUUCUGAAUUCCUACUUGTT against Dtymk, the z-score was inactive: 0.759.
With GGGCCAUGCCAACAUAGUATT against Gabpb1 the z-score was inactive: -0.0381.
With CGGUAAUCUUAUGACAACUTT against Gpc6 the z-score was inactive: 1.06.
With “CCUGGUAUAGAGUGAAAUCTT against 4930522H14Rik” the z-score was inactive: -0.686.
For GGCUUAUUGGAAGAGGACGTT against Ier5, the z-score was inactive: 0.559.
For “CCUAGAGACCCAUUCUCUATT against 2210409E12Rik”, the z-score was inactive: 1.7.
With GGCCAAACAGUUAUCUGAATT against AI182371 the z-score was inactive: -1.71.
